Results on two molecules are retold here after paper PMC3046540.

Chains of the proteins cited; added tags and fusions are not shown.
UniProt Q96KQ7: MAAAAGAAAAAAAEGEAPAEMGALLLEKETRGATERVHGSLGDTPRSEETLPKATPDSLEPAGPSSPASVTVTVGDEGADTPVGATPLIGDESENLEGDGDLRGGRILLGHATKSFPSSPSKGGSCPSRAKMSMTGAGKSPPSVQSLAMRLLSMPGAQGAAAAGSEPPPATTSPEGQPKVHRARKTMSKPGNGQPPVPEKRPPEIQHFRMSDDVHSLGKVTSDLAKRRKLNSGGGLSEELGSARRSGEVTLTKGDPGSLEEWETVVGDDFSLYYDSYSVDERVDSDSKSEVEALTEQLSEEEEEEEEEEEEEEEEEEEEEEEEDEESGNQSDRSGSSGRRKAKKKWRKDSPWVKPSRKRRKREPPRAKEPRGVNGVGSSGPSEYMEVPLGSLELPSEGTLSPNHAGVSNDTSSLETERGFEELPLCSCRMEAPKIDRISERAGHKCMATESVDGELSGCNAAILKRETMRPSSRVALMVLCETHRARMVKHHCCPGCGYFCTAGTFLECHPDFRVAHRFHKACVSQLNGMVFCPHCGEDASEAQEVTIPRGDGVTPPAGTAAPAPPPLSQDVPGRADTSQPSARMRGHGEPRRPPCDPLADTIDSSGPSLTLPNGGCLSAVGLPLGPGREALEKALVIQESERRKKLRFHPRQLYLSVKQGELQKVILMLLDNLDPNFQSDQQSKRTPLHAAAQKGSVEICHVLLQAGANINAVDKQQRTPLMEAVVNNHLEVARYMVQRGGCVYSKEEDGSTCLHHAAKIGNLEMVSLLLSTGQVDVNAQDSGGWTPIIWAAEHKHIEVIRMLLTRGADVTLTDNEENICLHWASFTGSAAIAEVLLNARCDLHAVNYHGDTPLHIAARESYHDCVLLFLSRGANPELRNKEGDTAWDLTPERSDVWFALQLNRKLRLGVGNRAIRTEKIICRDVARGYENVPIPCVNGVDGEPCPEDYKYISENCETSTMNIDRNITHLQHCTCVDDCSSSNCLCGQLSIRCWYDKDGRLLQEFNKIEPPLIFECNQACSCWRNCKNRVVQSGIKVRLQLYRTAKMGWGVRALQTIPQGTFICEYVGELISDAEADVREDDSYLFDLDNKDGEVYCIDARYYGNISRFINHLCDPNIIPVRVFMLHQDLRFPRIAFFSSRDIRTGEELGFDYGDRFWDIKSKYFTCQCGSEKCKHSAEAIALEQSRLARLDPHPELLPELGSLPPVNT

The assay has as its target T1, Regulatory factor X-box 1 (RFX1) (human (endogenous in CD4+ T cells)) (UniProt P22670).
T1 sequence: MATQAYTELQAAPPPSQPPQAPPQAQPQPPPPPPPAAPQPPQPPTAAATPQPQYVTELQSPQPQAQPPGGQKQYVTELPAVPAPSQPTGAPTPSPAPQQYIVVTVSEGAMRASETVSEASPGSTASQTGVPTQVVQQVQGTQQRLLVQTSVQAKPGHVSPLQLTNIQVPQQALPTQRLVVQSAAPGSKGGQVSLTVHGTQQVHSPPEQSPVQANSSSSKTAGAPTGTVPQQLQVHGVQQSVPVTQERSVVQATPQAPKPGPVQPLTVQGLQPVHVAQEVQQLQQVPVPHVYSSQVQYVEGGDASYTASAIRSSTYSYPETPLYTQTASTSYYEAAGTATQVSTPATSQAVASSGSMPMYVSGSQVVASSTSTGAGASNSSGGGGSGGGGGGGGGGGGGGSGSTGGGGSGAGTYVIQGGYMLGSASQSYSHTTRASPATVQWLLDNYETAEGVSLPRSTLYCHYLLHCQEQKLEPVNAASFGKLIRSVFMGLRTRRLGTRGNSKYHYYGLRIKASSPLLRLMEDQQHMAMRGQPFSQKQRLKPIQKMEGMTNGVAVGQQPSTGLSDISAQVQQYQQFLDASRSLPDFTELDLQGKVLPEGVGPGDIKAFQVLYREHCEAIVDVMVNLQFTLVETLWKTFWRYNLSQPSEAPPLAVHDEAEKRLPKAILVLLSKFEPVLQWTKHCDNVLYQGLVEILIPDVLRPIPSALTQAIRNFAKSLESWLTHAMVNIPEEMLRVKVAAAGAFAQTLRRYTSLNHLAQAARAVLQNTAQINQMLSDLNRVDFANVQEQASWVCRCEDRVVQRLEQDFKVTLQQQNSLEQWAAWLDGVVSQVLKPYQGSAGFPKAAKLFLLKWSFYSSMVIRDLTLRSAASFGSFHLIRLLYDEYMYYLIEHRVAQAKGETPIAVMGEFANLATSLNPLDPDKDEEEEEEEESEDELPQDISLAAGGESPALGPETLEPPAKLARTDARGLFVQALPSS
Nature of the assay: co-IP; whole CD4+ T cell lysates in RIPA buffer incubated overnight with RFX1 antibody, protein A/G PLUS-agarose beads, Western blot; lysates of healthy CD4+ T cells and of Jurkat cells. (In general: A western blot detects proteins with antibodies after separation by electrophoresis.)

Results are given in words; binding and its absence hold for the method and conditions named. In cells and extracts the contact can be indirect. Some entries that bind do so weakly or less than the wild type.

With “G9a (from UniProt Q96KQ7 1-1210) (enzyme)”, the binding entry is listed as “no binding”.

B1: suppressor of variegation 3-9 (Drosophila) homolog 1 (SUV39H1) (enzyme, UniProt O43463 1-412)
chain: MAENLKGCSVCCKSSWNQLQDLCRLAKLSCPALGISKRNLYDFEVEYLCDYKKIREQEYYLVKWRGYPDSESTWEPRQNLKCVRILKQFHKDLERELLRRHHRSKTPRHLDPSLANYLVQKAKQRRALRRWEQELNAKRSHLGRITVENEVDLDGPPRAFVYINEYRVGEGITLNQVAVGCECQDCLWAPTGGCCPGASLHKFAYNDQGQVRLRAGLPIYECNSRCRCGYDCPNRVVQKGIRYDLCIFRTDDGRGWGVRTLEKIRKNSFVMEYVGEIITSEEAERRGQIYDRQGATYLFDLDYVEDVYTVDAAYYGNISHFVNHSCDPNLQVYNVFIDNLDERLPRIAFFATRTIRAGEELTFDYNMQVDPVDMESTRMDSNFGLAGLPGSPKKRVRIECKCGTESCRKYLF
Consider B1, for which the binding result is “binds”.
